Measured values as given in paper PMC3093354.
No constants are given. Whether binding was seen depends on the method and setting. A result given as binding can be weak or reduced; the word gives no strength. Where a sequence is shown, tags or fusion partners need not be part of it.

Columns and labels:
[1] = target: LIN-54 (wild-type), Gal4 DNA-binding domain fusion (C. elegans); test: two-hybrid; yeast two-hybrid; LIN-54 (wild-type or G252E/A442T) as Gal4 DNA-binding domain bait, LIN-9 as Gal4 activation domain prey; permissive and selective media
[2] = target: LIN-54^G252E/A442T, Gal4 DNA-binding domain fusion (C. elegans); test: as above

B1: LIN-9, Gal4 activation domain fusion (protein, UniProt P30630 1-644)
chain: MSSAVRSPRKKAASDTSDPDRTSSPYSLRETSKVPSRYRNEELYLSPSRSIKRTGSPKKSPAKRLNGGRDSPSVNSLTRNSSLTMLAKAALDYESSSCALEYIFQPKEERRPPRRALALSPPPAPSNDLLAKDLEMIEMHQNLVAGLDDLDNPANMTNEAVEHRDTQSFFNMFSTDQERSAMMKQFKTYKNQTSEDVSTFMRANIKKLYNLLRYKKARQWVMCEFFYSAIDEQIFKEENEFATIIRESFPNLKNWNLTRIEWRSIRKLLGKPRRCSKVFFEEERMYLEEKRMKIRSVYEGSYLNDPSIDLKDLPAKLPRPMVVGNRVFARIRNPYDGIYSGIIDAVIPKGFRIIFDKPDIPPTLVSDTEILLDGKLDLLSIAYFIEQANSKLPSGVRPFVAAVRDSSHPHLVRDVLVSRKIERSGGPLMGPNDERLNGKNAEMVGNFPLKFLVNLVKLTKLIDIKKGLIRQLNELNADAEIQNMTSDKYSKAFQEKYAKTIIDLEHVNQNIDINMNGIQDHHMYFSSNDISTSNMKPEAVRQMCSQQAGRFVEHCNQGLNVENVHALTLIQSLTAVLLQVRTMGTQKISAVDLQSLGDAISEIRTAIHPRNVAFFQDYVEVHMKQFHTIMLESGALAGTVSNRK
With B1 the binding [1] was “binds” and the binding [2] was “binds”.
